# This is one part of the list.
# Protein sequences, listed by entry. Tags and fused reporters are not part of them.
# UniProt Q0JBA9, entry or part of it: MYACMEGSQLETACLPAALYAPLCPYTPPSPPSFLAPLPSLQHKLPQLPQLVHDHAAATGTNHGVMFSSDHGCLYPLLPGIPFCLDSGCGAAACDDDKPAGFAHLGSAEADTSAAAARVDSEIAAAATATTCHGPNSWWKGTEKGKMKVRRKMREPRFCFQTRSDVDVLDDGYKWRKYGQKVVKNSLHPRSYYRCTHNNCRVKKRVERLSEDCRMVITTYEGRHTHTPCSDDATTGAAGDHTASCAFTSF
# Target: OsWRKY34 (Oryza sativa, UniProt Q0JBA9 1-250)
# Experiment: protein-binding microarray (RPBM); PBS, 2% BSA, 51.3 ng/ul salmon testes DNA, 50 uM zinc acetate, 200 nM TF, 25 C, 1 h; high values mean tight binding
# Details: protein: recombinant; tags: N-terminal polyhistidine and DsRed monomer fusion (pET32a); label: CyDye5-dUTP incorporated in the synthesized complementary strand; 3' TTTTT single-stranded linker to array surface; dsDNA, one strand shown
# Summary of the method: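 Binding signal here means per-feature fluorescence intensity in arbitrary units. The values were read on an Axon 4000B scanner after a custom Agilent array, double-stranded by primer extension with Cy5-dUTP, was incubated with 200 nM protein at 25 °C for 1 h in PBS with 2% BSA, salmon testes DNA and 50 µM zinc acetate, then washed. The proteins were transcription factors with an N-terminal polyhistidine tag and DsRed, expressed in E. coli BL21-CodonPlus and purified on Ni–NTA.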
row,Sequence,binding signal
1,TCACGATGTGGTCGATCCACATTCCAGCCTGCAACTGCACCGGAGTCACCTAGTGCAG,8480 fluorescence intensity (a.u.)
2,TCTGAATTTTTTTTTCTTTGGTAAGATACTAATTGCGTTCCGGAGTCACCTAGTGCAG,9650 fluorescence intensity (a.u.)
3,CCACGCGCACGCTTTTCAAACTATTAAATTATGCGTTTTTCGGAGTCACCTAGTGCAG,8340 fluorescence intensity (a.u.)
4,TTAATCATATGCGGTTTCTTGTATTTCACGTGTCGCCGAACGGAGTCACCTAGTGCAG,10200 fluorescence intensity (a.u.)
5,TTTTTTGATATACTATTCTTGTTGACACAAGCTCATTTTTCGGAGTCACCTAGTGCAG,11000 fluorescence intensity (a.u.)
6,CATGCGACACTCTACTTTACACCTTTAGATCTAAACACCCCGGAGTCACCTAGTGCAG,8690 fluorescence intensity (a.u.)
7,GCAACCACGCGCCGTTGGCTTCGCCGCCTATATATACATACGGAGTCACCTAGTGCAG,9050 fluorescence intensity (a.u.)
8,ATTTGTGTTTGTCCTTTTTCTTTTAGCTTTCTTGGCAGCCCGGAGTCACCTAGTGCAG,13100 fluorescence intensity (a.u.)
9,ACGCGGCGATGTTTCCCATTATTTCCAGCCTCCGCCGACACGGAGTCACCTAGTGCAG,8310 fluorescence intensity (a.u.)
10,GCCGGATCGAGCCCAACGCCACAGTTTCTTCTCGTCACAACGGAGTCACCTAGTGCAG,10700 fluorescence intensity (a.u.)
11,CTCTGTGTGTTGTGTGCTCGAAACAAATTATCCATGTTCTCGGAGTCACCTAGTGCAG,10700 fluorescence intensity (a.u.)
12,AGTGTGTTGTGTTTGAGCTGCCGATGAAGGTGGCGGTGGACGGAGTCACCTAGTGCAG,8900 fluorescence intensity (a.u.)
13,ACCCTTTTCAACCTATAAATTTATCACGGTCAGATCAATTCGGAGTCACCTAGTGCAG,8480 fluorescence intensity (a.u.)
14,CTTGCTCTCCTCTCTCGTGCTCCATCGATCGATCGATCTCCGGAGTCACCTAGTGCAG,9660 fluorescence intensity (a.u.)
15,CTAATCCACTTTTTATTTTTTGCGCCATTTTTTCTTTTTCCGGAGTCACCTAGTGCAG,10800 fluorescence intensity (a.u.)
16,CCCCACCAACCTCCTCCTCCGCCGCCGCCGCCGCCGCCTCCGGAGTCACCTAGTGCAG,10600 fluorescence intensity (a.u.)
17,AATAAGGCCAAATCTTCAATGCGCTCACTTTTCAGCTCATCGGAGTCACCTAGTGCAG,9760 fluorescence intensity (a.u.)
18,GTACTGCGTCTACGTATACTCTCCTCTCTCTCTCTCACACCGGAGTCACCTAGTGCAG,9240 fluorescence intensity (a.u.)
19,GTGTAGTGGTGTGTGTACGCGTGCGTCTACCGTATAATCGCGGAGTCACCTAGTGCAG,8210 fluorescence intensity (a.u.)
20,GCGCTCGCCGCTGCCGCAAGCTCGCCTCCGACCCCGGCCACGGAGTCACCTAGTGCAG,9530 fluorescence intensity (a.u.)
21,GTGAAGATCGACGTATTTTCCGAGCTGACCCTCTGCATGCCGGAGTCACCTAGTGCAG,8180 fluorescence intensity (a.u.)

row,Sequence,binding signal
1,CCTCCTTCATTGGCACTACTACATCCTCTTTCTTCTCATCCGGAGTCACCTAGTGCAG,8400 fluorescence intensity (a.u.)
2,ATGCTGTTATGTAGATTTTCTGTTTAAGAATTGGTCTCGTCGGAGTCACCTAGTGCAG,9280 fluorescence intensity (a.u.)
3,AATCTACATCTATGATCTGTCACTGCTTCTCTCTCTCTCCCGGAGTCACCTAGTGCAG,10900 fluorescence intensity (a.u.)
4,AGCCAATCCGTTTCTCTTTCTGTTCAGGCTGTTTGACTCACGGAGTCACCTAGTGCAG,11000 fluorescence intensity (a.u.)
5,TTCCCATTCCAGCTCCGTCTTTCTTTCTTCTCCTCCTGGACGGAGTCACCTAGTGCAG,10400 fluorescence intensity (a.u.)
6,TGCCCAACTCGCGCTTTCGATTTCCGTTTTCGATTCCGTTCGGAGTCACCTAGTGCAG,11000 fluorescence intensity (a.u.)
7,GCCCGGTTGATCTGCTCCCATTTCTAGCATTTTCCATTTCCGGAGTCACCTAGTGCAG,13900 fluorescence intensity (a.u.)
8,CATTCGGTTTGCTCTTCGATTCCTAACTTAACTGATTTTTCGGAGTCACCTAGTGCAG,9480 fluorescence intensity (a.u.)
9,AGGAGATGCGGTAGTTTTTTTGGTACTGCGTGCGGTGGGGCGGAGTCACCTAGTGCAG,8400 fluorescence intensity (a.u.)
10,CACCAACACCCAACCACCCGCTGCTAAGCTAGCTCCCAATCGGAGTCACCTAGTGCAG,9540 fluorescence intensity (a.u.)
11,CCCCAAAATACTCGACGCTGAACTTTCCCATCAGCTAGTACGGAGTCACCTAGTGCAG,8280 fluorescence intensity (a.u.)
12,AATTTGATTCTTTTAGCCATGCCACTACACGCGGTAGACTCGGAGTCACCTAGTGCAG,8510 fluorescence intensity (a.u.)
13,TTAATACATGTCTATTTTTCTATATGCATGTACACATTTTCGGAGTCACCTAGTGCAG,9060 fluorescence intensity (a.u.)
14,GACGTCCTCTCTTCCGCCGGTATCACCACTTCACCACTCTCGGAGTCACCTAGTGCAG,8610 fluorescence intensity (a.u.)
15,CATCGCTCTGACGGTATCTTGGTCGACACATCGATTGCATCGGAGTCACCTAGTGCAG,8250 fluorescence intensity (a.u.)
16,TCGAAACCTCGCTCCACTTCAATTTAATTCATCATTCTAACGGAGTCACCTAGTGCAG,10600 fluorescence intensity (a.u.)
17,AGTAGTATTATTTTGTTCCAACTTTTTATTTAGGTTTTGTCGGAGTCACCTAGTGCAG,9790 fluorescence intensity (a.u.)
18,ACTTCGAGTGTGTTTGTCGTCTCGCCTCTGCTGCTTCCTTCGGAGTCACCTAGTGCAG,10200 fluorescence intensity (a.u.)
19,ATCCAGTCTCTCTATTAGCTTGTATCCCTATTCTTATTCTCGGAGTCACCTAGTGCAG,10100 fluorescence intensity (a.u.)
20,ATTCTTCAAGCAGGCTTGCTTGCAGTCATCTCTATTTTTTCGGAGTCACCTAGTGCAG,8420 fluorescence intensity (a.u.)
21,CACACCTCCACCAACTAGCTGCCACGCTCGCTTTCCCCTGCGGAGTCACCTAGTGCAG,9450 fluorescence intensity (a.u.)

# 4 consecutive records already listed:
row,Sequence,binding signal
1,CCTCCTTCATTGGCACTACTACATCCTCTTTCTTCTCATCCGGAGTCACCTAGTGCAG,8400 fluorescence intensity (a.u.)
2,ATGCTGTTATGTAGATTTTCTGTTTAAGAATTGGTCTCGTCGGAGTCACCTAGTGCAG,9280 fluorescence intensity (a.u.)
3,AATCTACATCTATGATCTGTCACTGCTTCTCTCTCTCTCCCGGAGTCACCTAGTGCAG,10900 fluorescence intensity (a.u.)
4,AGCCAATCCGTTTCTCTTTCTGTTCAGGCTGTTTGACTCACGGAGTCACCTAGTGCAG,11000 fluorescence intensity (a.u.)

# (further entries)

row,Sequence,binding signal
1,GCAGCGCTCGTCTCTCTCTGTCTCTCCACTCTCTTCTCTCCGGAGTCACCTAGTGCAG,10100 fluorescence intensity (a.u.)
2,TACTGCCTAAACCAGGCCTAATTGCCATGCCTCCAAACTACGGAGTCACCTAGTGCAG,8530 fluorescence intensity (a.u.)
3,GTTGCAATGTTGATCTGGTTTACTTCCCAACTTTTTCTTCCGGAGTCACCTAGTGCAG,10500 fluorescence intensity (a.u.)
4,TTATGGATGTCAGCCGGCCCAACAAACCTTTGACCAACCTCGGAGTCACCTAGTGCAG,9420 fluorescence intensity (a.u.)
5,CCCGCCGTTACCATCCTCGCCGCCGCCTTCCATCCCCGCCCGGAGTCACCTAGTGCAG,10700 fluorescence intensity (a.u.)
6,CCTATTGTTGTTGCTGCTTGATGCTTGCTGTTACCCCTGACGGAGTCACCTAGTGCAG,8580 fluorescence intensity (a.u.)
7,AGTCATTCTAACATTTCCCACATTCATATTGATGTTAATGCGGAGTCACCTAGTGCAG,8760 fluorescence intensity (a.u.)
8,ACCTATTATTGCATGATTAATTAAGTATTTACTATTTTTTCGGAGTCACCTAGTGCAG,10800 fluorescence intensity (a.u.)
9,ATCACAAGAGATTGTCACATGGCCCATGCACGCTATCGCACGGAGTCACCTAGTGCAG,8880 fluorescence intensity (a.u.)
10,ATCCACCACGCAACCTTGCCGCCGCACTTGCACATGATGGCGGAGTCACCTAGTGCAG,10600 fluorescence intensity (a.u.)
11,ATCCACCTTCTCATCTAATCGCCATCCCATCCCACCAATTCGGAGTCACCTAGTGCAG,11000 fluorescence intensity (a.u.)
12,AACGTAATCTTCTCATCCCACCGACGGATCGATCGATCCACGGAGTCACCTAGTGCAG,8520 fluorescence intensity (a.u.)
13,CCCGTCCGAGTTTCAACCCTTTGACTCGAGCGCACGCTCCCGGAGTCACCTAGTGCAG,11700 fluorescence intensity (a.u.)
14,CAATATGAGATGGTGGGCACTTTTTTTTGTCACAAAATAACGGAGTCACCTAGTGCAG,8060 fluorescence intensity (a.u.)
15,TCCTTGTTGGTTCAATATAGAACTCTATTTGTCCTTTCTTCGGAGTCACCTAGTGCAG,9740 fluorescence intensity (a.u.)
16,ACTGGCTTGCTCTACTCTATTATTCCCTTTGCATTGCATTCGGAGTCACCTAGTGCAG,8240 fluorescence intensity (a.u.)
17,ATGTAATGACATATTAACATCGTGAGAAAAACTTACCTAGCGGAGTCACCTAGTGCAG,12400 fluorescence intensity (a.u.)
18,AAGAATTTTGCTTTGGTTCAACCTTTTTTCTCTTCTTTCTCGGAGTCACCTAGTGCAG,11300 fluorescence intensity (a.u.)
19,CCCTCGCTACGGCTCATCTTGTTTTGTTTTGGTTGACCTTCGGAGTCACCTAGTGCAG,11200 fluorescence intensity (a.u.)
20,CCTGCCGACCACCGCGCATGCGTCCCTGCCGTCCTGGTATCGGAGTCACCTAGTGCAG,8530 fluorescence intensity (a.u.)
21,AATGAGAGCTTAGGGGTTAGGGCCTGTTTTTTTTTTTCATCGGAGTCACCTAGTGCAG,10100 fluorescence intensity (a.u.)

row,Sequence,binding signal
1,AATCGGCGCCAATTCAGCTTGTTTTGTGGAACTGTGTGTTCGGAGTCACCTAGTGCAG,10300 fluorescence intensity (a.u.)
2,CCGCGTGTGCCTCCCGCCGCCGCCGCTGTGGTCTCCTCCACGGAGTCACCTAGTGCAG,9180 fluorescence intensity (a.u.)
3,TTCTTCGTGGAGGAGGGGATATGGGTTGGCACCGGTGGCGCGGAGTCACCTAGTGCAG,13100 fluorescence intensity (a.u.)
4,AGTTTTTGTTGGTTCTATGTGTCATCGTCGTCGATATCCACGGAGTCACCTAGTGCAG,12400 fluorescence intensity (a.u.)
5,CACGTTTAGTTCCATCGTGTGTTCTGTCCTCTGGCAAGCGCGGAGTCACCTAGTGCAG,8170 fluorescence intensity (a.u.)
6,ACTCCTCGTTGATCTGGATCTTGGAGAGATCCTCCTCGCCCGGAGTCACCTAGTGCAG,8050 fluorescence intensity (a.u.)
7,TGTGGTGGATGCTGCTCTAACTGCCTGTTCCCATGGAAGACGGAGTCACCTAGTGCAG,8720 fluorescence intensity (a.u.)
8,ATCCTAATTTTTAGCCTAATTATTCTTCTGGCCGCTAATACGGAGTCACCTAGTGCAG,9900 fluorescence intensity (a.u.)
9,CGGCCTATAAGTACTCCATCCCGCCGGCCGGCCGGTGACTCGGAGTCACCTAGTGCAG,9830 fluorescence intensity (a.u.)
10,ATGTGTGAGGATGGTGGTTTGAAAGAGTTCATTACCTGGACGGAGTCACCTAGTGCAG,9180 fluorescence intensity (a.u.)
11,TGTCGTTCCACCGCTCCCGCGGCAGCGCGTCTCCTGCAGGCGGAGTCACCTAGTGCAG,9840 fluorescence intensity (a.u.)
12,TTTTGTTAGGTCTTCTCCTCCTCCGCCGTCTCGTGCGCCGCGGAGTCACCTAGTGCAG,8870 fluorescence intensity (a.u.)
13,CCGTTCGATGACCATACTCTATTTCACAACGCTGTTGACACGGAGTCACCTAGTGCAG,11100 fluorescence intensity (a.u.)
14,GACAAATCACCATCTACTTCATATATGCAGGCAATTTTTACGGAGTCACCTAGTGCAG,11100 fluorescence intensity (a.u.)
15,GCCCGGCTACCACCACGCCAACGCGCTCATTTCGTTCATTCGGAGTCACCTAGTGCAG,15400 fluorescence intensity (a.u.)
16,ACATCGCTCACTGTTTTCTTTCCGAGGTACCTCAACATTACGGAGTCACCTAGTGCAG,11100 fluorescence intensity (a.u.)
17,GCGTTATTCGCAGTCATTTGTTTTCTAATTATGTATGTCACGGAGTCACCTAGTGCAG,8670 fluorescence intensity (a.u.)
18,GTCAATTGTTCCTCTTGTTATGATTAGATCAGCCATTTTACGGAGTCACCTAGTGCAG,9840 fluorescence intensity (a.u.)
19,ATAGCAGCCTCTCTCCATCTCTCTCACACACTCAACTCAACGGAGTCACCTAGTGCAG,8380 fluorescence intensity (a.u.)
20,CCATTTGGACATCTCTGAATTCGTCTGTTCATCTTTACCACGGAGTCACCTAGTGCAG,10200 fluorescence intensity (a.u.)
21,ACCAGTGTCGCCTCCTACTGATGTGTTGAGAGTTTCTGAACGGAGTCACCTAGTGCAG,8400 fluorescence intensity (a.u.)

# Fetched one by one from above (2):
row,Sequence,binding signal
19,ATAGCAGCCTCTCTCCATCTCTCTCACACACTCAACTCAACGGAGTCACCTAGTGCAG,8380 fluorescence intensity (a.u.)
14,GACAAATCACCATCTACTTCATATATGCAGGCAATTTTTACGGAGTCACCTAGTGCAG,11100 fluorescence intensity (a.u.)
